PubChem BioAssay AID1671195, Yale University | 2021

Test: 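Knockdowns that increase or decrease uptake of fluorescent LDL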 (primary screen)
System: human Huh7 hepatoma cells
Reagent: siRNA pool against human genes, 18 nM
Time to read-out: about 2 to 2.5 days of knockdown, then 8 h LDL uptake
Treatment: DiI-labelled LDL at 30 µg/ml for 8 h, in lipoprotein-deficient serum medium
Detection: 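Fluorescent LDL signal imaged in cells, scaled to the plate median, robust z-score for each replicate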
Reading the numbers: robust z-score: higher = more LDL uptake after knockdown
Hit rule: 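Active when two or more replicates show a robust z-score above 2 or below -2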
The deposit covers about 22,000 reagents; below is a random part of them. In the full data, about 1,510 (6.9%) were called active. 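Active includes knockdowns raising or lowering LDL uptake; positive z-scores mean more uptake, negative mean less.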 Reagent sequences are not shown.

gene	robust z-score, replicate 1	robust z-score, replicate 2	robust z-score, replicate 3	activity call
ME3	-0.461	-0.267	-0.815	inactive
CEP78	0.803	0.173	0.374	inactive
DERL3	1.19	1.04	2.13	inactive
ZNF648	-0.0973	-0.363	-0.503	inactive
FARP1	0.926	0.372	-0.527	inactive
FAM230I	-0.525	-0.748	-0.567	inactive
STX18	-0.635	0.837	0.591	inactive
ZNF776	-0.19	-0.684	-0.82	inactive
LRFN2	1.95	3.48	2.56	active
RAMP2	-0.188	-0.442	-1.02	inactive
PCDHA5	0.592	0.581	0.524	inactive
ACOT7	-1.25	-0.533	-0.594	inactive
TSKU	0.189	-0.294	-1.38	inactive
TMEM214	0.211	1	-0.251	inactive
LOC401026 (retired record)	-0.447	-0.911	-0.369	inactive
UBE2B	0.278	-0.464	0.719	inactive
LOC441798 (retired record)	1.5	1.37	1.72	inactive
HOOK3	2.62	3.26	3.77	active
CCSER2	-1.4	0.777	-0.0344	inactive
ILF2	-2.2	-1.58	-2.75	active
KCTD13	-1.61	-1.42	-0.964	inactive
PCLAF	1.07	-0.157	0.482	inactive
MATN1	0.156	0.542	0.569	inactive
ANO10	-0.00177	1.76	0.115	inactive
H1-7	-0.914	-1.35	-1.35	inactive
LOC442274 (retired record)	2.17	2.5	2.34	active
SNTB2	-0.543	-0.67	-0.683	inactive
ATP6V1B2	0.718	0.457	0.898	inactive

Records listed so far whose target name begins with T or t (2):
gene	robust z-score, replicate 1	robust z-score, replicate 2	robust z-score, replicate 3	activity call
TSKU	0.189	-0.294	-1.38	inactive
TMEM214	0.211	1	-0.251	inactive
